Laboratory results as given in PubChem BioAssay AID296 (DTP/NCI, 2004).
The list shows only some results of the screen, not a fair sample: it gathers tests that were run many times, whatever their T/C, doses with no T/C, and many T/C values between a quarter and a half above the control. Other doses and runs of a compound stand elsewhere. T/C gives the treated animals as a percentage of the vehicle group. Schedules are NCI's codes, read here as Q, the interval in days (D) or hours (H), X, the number of doses. Some doses were run more than once; the results are listed from low to high. Some T/C values carry the count of animals alive at the toxicity check (mostly the fifth day); where none is given, no animal had died by that day. Some values lie below zero, which means that the treated tumours became smaller. Some doses have a count of surviving animals in place of a T/C: the source holds a T/C of zero for them, seemingly a mark for toxic or unscored doses. Counts of survivors are from the toxicity check (mostly the fifth day) where no day follows; animals may have died later.

System: MX-1 breast xenograft, nude mice, tumor weight T/C
Experiment: NCI In Vivo Anticancer Drug Screen. Data for tumor model Human Mammary Carcinoma MX-1 Xenograft (intrarenal inoculation) in NU/NU Swiss (nude) mice
Settings: T/C endpoint: mean tumor weight change, higher T/C = larger tumour; for T/C: evaluated on day 11
Summary of the method: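 Mice carrying the implanted tumor receive either test agent or vehicle. Tumor size or survival is then recorded for both groups. Results are stated as the treated-to-control quotient.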

[1] = dose: 600.0 mg/kg/injection, schedule: Q04DX003 (sc), vehicle: saline with Tween-80
[2] = dose: 100.0 mg/kg/injection, schedule: Q01DX010 (sc), vehicle: suspension in saline
[3] = dose: 400.0 mg/kg/injection, schedule: Q01DX010 (sc), vehicle: suspension in saline
[4] = dose: 40.0 mg/kg/injection, schedule: Q04DX003 (sc), vehicle: saline
[5] = dose: 37.5 mg/kg/injection, schedule: Q04DX003 (sc), vehicle: Klucel (hydroxypropylcellulose) (HPC)
[6] = dose: 150.0 mg/kg/injection, schedule: Q04DX003 (sc), vehicle: Klucel (hydroxypropylcellulose) (HPC)
[7] = dose: 300.0 mg/kg/injection, schedule: Q04DX003 (sc), vehicle: Klucel (hydroxypropylcellulose) (HPC)
[8] = dose: 1200.0 mg/kg/injection, schedule: Q04DX003 (sc), vehicle: Klucel (hydroxypropylcellulose) (HPC)
[9] = dose: 50.0 mg/kg/injection, schedule: Q01DX010 (sc), vehicle: saline

In the case of CN(C)c1nc(N(C)C)nc(N(C)C)n1, the survivor count (dose: 60.0 mg/kg/injection, schedule: Q01DX008 (ip), vehicle: saline) is reported as 0 of 5, the survivor count (dose: 120.0 mg/kg/injection, schedule: Q01DX008 (ip), vehicle: saline) is reported as 0 of 5 and the survivor count (dose: 200.0 mg/kg/injection, schedule: Q01DX010 (sc), vehicle: Klucel (hydroxypropylcellulose) (HPC)) is reported as 1 of 2 on day 11. For the same compound, the survivor count (dose: 240.0 mg/kg/injection, schedule: Q01DX008 (ip), vehicle: saline) was 0 of 5, the survivor count (dose: 480.0 mg/kg/injection, schedule: Q01DX008 (ip), vehicle: saline) was 0 of 5 and the survivor count [1] was 3 of 6 on day 11.
For Cc1cc(=O)n2c3c(c4c(cc13)c(CN(C)C)cc(=O)n4C)OC2, the survivor count [1] was 1 of 6 on day 11.
For CC(=O)N(C)c1ccc(Nc2cc(C)[nH]c3ccc4ncnc4c23)cc1, the survivor count (dose: 400.0 mg/kg/injection, schedule: Q04DX003 (sc), vehicle: saline with Tween-80) was 0 of 6 on day 11.
With CS(=O)(=O)c1ncc(Br)cn1 the T/C (dose: 25.0 mg/kg/injection, schedule: Q01DX010 (sc), vehicle: suspension in saline) was 137 % of control, the T/C (dose: 50.0 mg/kg/injection, schedule: Q01DX010 (sc), vehicle: suspension in saline) was 48, 69, 75, 110 % of control and the T/C [2] was 63, 65, 84, 103 % of control. For the same compound, the T/C (dose: 200.0 mg/kg/injection, schedule: Q01DX010 (sc), vehicle: suspension in saline) was 70 [5 of 6 alive on day 11], 76 [5 of 6 alive on day 11], 87, 95 % of control [4 of 6 alive on day 11], the survivor count [3] was 0 of 6 on day 11 and 1 of 6 on day 11 and the survivor count [1] was 0 of 6 on day 11.
COC1CC(C)C(OC)C2=CC(=O)C=C(NC(=O)/C(C)=C/C=C\C(C)C(OC(N)=O)/C(C)=C\C(C)C1OC)C2=O (stereo not drawn) was tested, and the survivor count (dose: 50.0 mg/kg/injection, schedule: Q04DX003 (sc), vehicle: saline + alcohol) was 1 of 6 on day 11 and the survivor count (dose: 100.0 mg/kg/injection, schedule: Q04DX003 (sc), vehicle: saline + alcohol) was 1 of 6 on day 11.
With O=[Te]=O the survivor count (dose: 100.0 mg/kg/injection, schedule: Q04DX003 (sc), vehicle: suspension in saline) was 2 of 6 on day 11.
CC1=CC(C)(C)Nc2ccc(CSc3ccccc3)cc21 was tested, and the T/C (dose: 12.5 mg/kg/injection, schedule: Q01DX010 (sc), vehicle: saline + Tween-80 + alcohol) was 141 % of control and the T/C (dose: 400.0 mg/kg/injection, schedule: Q01DX010 (sc), vehicle: saline + Tween-80 + alcohol) was 136 % of control [2 of 2 alive on day 11].
In the case of CC(C)CC(NC(=O)CF)C(=O)O (stereo not drawn), the T/C (dose: 5.0 mg/kg/injection, schedule: Q04DX003 (sc), vehicle: saline) is reported as 144 % of control and the survivor count [4] is reported as 2 of 6 on day 11.
In the case of CN1CCN(c2ccc3nc(-c4ccc5nc(-c6ccc(O)cc6)[nH]c5c4)[nH]c3c2)CC1, the T/C (dose: 200.0 mg/kg/injection, schedule: Q04DX003 (sc), vehicle: saline) is reported as 144 % of control [4 of 6 alive on day 11], the survivor count (dose: 1000.0 mg/kg/injection, schedule: Q04DX003 (sc), vehicle: suspension in saline) is reported as 3 of 6 on day 11 and the survivor count (dose: 2000.0 mg/kg/injection, schedule: Q04DX003 (sc), vehicle: suspension in saline) is reported as 0 of 6 on day 11.
With C[CH2][Sn]([CH2]C)([O]S(C)(=O)=O)[O]S(C)(=O)=O the survivor count (dose: 50.0 mg/kg/injection, schedule: Q04DX003 (sc), vehicle: saline with Tween-80) was 3 of 6 on day 11.
For Nc1ncnc2c1nnn2C1OC(CO)C(O)C1O (stereo not drawn), the T/C [5] was 39, 49, 72, 76 % of control, the T/C (dose: 75.0 mg/kg/injection, schedule: Q04DX003 (sc), vehicle: Klucel (hydroxypropylcellulose) (HPC)) was 14, 23, 46, 97 % of control and the T/C [6] was -49 [4 of 6 alive on day 11], -38 [4 of 6 alive on day 11], 1 [5 of 6 alive on day 11], 4 % of control [4 of 5 alive on day 11]. For the same compound, the survivor count [7] was 2 of 6 on day 11 and 3 of 6 on day 11.
CCC1CN2C(=N1)c1ccccc1-c1cc(Cl)ccc12 (stereo not drawn) was tested, and the survivor count (dose: 100.0 mg/kg/injection, schedule: Q01DX010 (sc), vehicle: saline with Tween-80) was 0 of 3 on day 11.
For CCCCCC(=O)O[C@]1(C(C)=O)CC[C@H]2[C@@H]3CCC4=CC(=O)CC[C@]4(C)[C@H]3CC[C@@]21C, the T/C [7] was 138 % of control and the T/C [8] was 129 % of control.
With CCCN1COC(OCC)C(C)(C)C1 (stereo not drawn) the survivor count (dose: 2400.0 mg/kg/injection, schedule: Q04DX003 (sc), vehicle: saline with Tween-80) was 0 of 6 on day 11.
With Cc1ccc2nc(-c3ccc4nc(-c5ccc(N=Nc6ccc(-c7nc8ccc(-c9nc%10ccc(C)c(S(=O)(=O)O)c%10s9)cc8s7)cc6)cc5)sc4c3)sc2c1S(=O)(=O)O the T/C (dose: 800.0 mg/kg/injection, schedule: Q04DX003 (sc), vehicle: suspension in saline) was 137 % of control [4 of 6 alive on day 11] and the survivor count (dose: 1600.0 mg/kg/injection, schedule: Q04DX003 (sc), vehicle: suspension in saline) was 2 of 6 on day 11.
In the case of O=NN(CCCl)C(=O)NC1[C@H](O)CCC[C@@H]1O (stereo partly drawn), the survivor count (dose: 20.0 mg/kg/injection, schedule: Q04DX003 (sc), vehicle: saline) is reported as 1 of 5 on day 11, the survivor count [4] is reported as 0 of 3 on day 11 and 0 of 6 on day 11 and the survivor count (dose: 80.0 mg/kg/injection, schedule: Q04DX003 (sc), vehicle: saline) is reported as 0 of 3 on day 11 and 0 of 6 on day 11.
O=Cc1ccc(C=O)c(Cl)c1 was tested, and the T/C [7] was 127 % of control and the T/C [8] was 127 % of control.
With NCC1CCC(C(=O)O)CC1 (stereo not drawn) the T/C (dose: 300.0 mg/kg/injection, schedule: Q04DX003 (sc), vehicle: saline with Tween-80) was 148 % of control.
Cc1c2ccncc2c(C)c2c1[nH]c1ccccc12 was tested, and the T/C [9] was 143 % of control [2 of 2 alive on day 11], the survivor count [9] was 1 of 3 on day 11 and the survivor count (dose: 100.0 mg/kg/injection, schedule: Q01DX010 (sc), vehicle: saline) was 0 of 3 on day 11 and 1 of 3 on day 11. The survivor count [2] was 0 of 3 on day 11, the survivor count (dose: 200.0 mg/kg/injection, schedule: Q01DX010 (sc), vehicle: saline) was 0 of 3 on day 11 and the survivor count [3] was 0 of 3 on day 11.
With COc1cc2cc[n+](C)c(Cc3ccccc3)c2cc1OC the survivor count [6] was 0 of 6 on day 11.
For CC1(C)OCC2OC=CC(=O)C2O1 (stereo not drawn), the survivor count (dose: 1200.0 mg/kg/injection, schedule: Q04DX003 (sc), vehicle: saline with Tween-80) was 0 of 6 on day 11.
In the case of COc1ccc2[nH]c3c(c2c1)CCNC3CC(C)CCC=C(C)C (stereo not drawn), the T/C [5] is reported as 145 % of control and the T/C [7] is reported as 126 % of control.
For O=C(O)C(O)C(O)C1[O][Sb][O]C1C(=O)O (stereo not drawn), the survivor count (dose: 300.0 mg/kg/injection, schedule: Q04DX003 (sc), vehicle: saline) was 0 of 6 on day 11 and the survivor count (dose: 600.0 mg/kg/injection, schedule: Q04DX003 (sc), vehicle: saline) was 0 of 6 on day 11.
In the case of O=C(O)Cc1cccc2c(=O)cc(-c3ccccc3)oc12, the T/C (dose: 200.0 mg/kg/injection, schedule: Q04DX003 (ip), vehicle: suspension in saline) is reported as 147 % of control, the survivor count (dose: 400.0 mg/kg/injection, schedule: Q04DX003 (ip), vehicle: suspension in saline) is reported as 0 of 6 on day 11 and the survivor count (dose: 800.0 mg/kg/injection, schedule: Q04DX003 (ip), vehicle: suspension in saline) is reported as 0 of 6 on day 11.
In the case of CCCCC(=O)OCC(=O)[C@]1(O)Cc2c(O)c3c(c(O)c2[C@@H](OC2CC(NC(=O)C(F)(F)F)C(O)C(C)O2)C1)C(=O)c1c(OC)cccc1C3=O (stereo partly drawn), the survivor count (dose: 512.0 mg/kg/injection, schedule: Q01DX010 (sc), vehicle: distilled water + Tween-80) is reported as 0 of 3 on day 11.
For COC1OC(CO)C(O)C(NC(=O)N(C)N=O)C1O (stereo not drawn), the survivor count (dose: 2400.0 mg/kg/injection, schedule: Q04DX003 (sc), vehicle: saline) was 0 of 6 on day 11 and 1 of 6 on day 11.
